The record followed here is patent US20200085918A1, “COMPOSITIONS AND METHODS FOR TREATMENT OF UREMIC CARDIOMYOPATHY” (priority 2016, published 2020).

The data set concerns Sham surgery C57BL/6 mice. The data set can be described thus: Transthoracic echocardiography, sham surgery mice (CoPP and pNaKtide study). In kind it is in vivo, mouse. The following applies: Sham + CoPP (5 mg/kg BW ip), n = 12, mean ± SE.

The structures appear in SMILES notation.

For the compound `C=CC1=C(C)c2cc3[n-]c(cc4nc(cc5[n-]c(cc1n2)c(C)c5CCC(=O)[O-])C(CCC(=O)[O-])=C4C)c(C)c3C=C.[Co+2].[H+].[H+]` [CoPP, cobalt protoporphyrin], the “AWT, anterior wall thickness” value turned out to be 0.67 ± 0.02 mm; the “BW, body weight” value worked out at 28.4 ± 0.6 g; the “CO, cardiac output” value came out at 11.0 ± 0.6 mL/min; the “EDA, end diastolic area” value is 28.4 ± 0.5 mm^2. For the same compound, the “EDD, end diastolic dimension” value stood at 4.5 ± 0.04 mm; the “EF, ejection fraction” value came to 57.0 ± 2.2%; the “ESA, end systolic area” value was 18.3 ± 0.5 mm^2; the “ESD, end systolic dimension” value was 3.4 ± 0.1 mm. For the same compound, the “FS, fractional shortening” value amounted to 24.7 ± 1.3%; the “LVMI, left ventricle mass index” value was 3.7 ± 0.1; the “MPI, myocardial performance index” value worked out at 0.40 ± 0.01; the “PWT, posterior wall thickness” value was determined as 0.60 ± 0.01 mm. Further, the “PaD, pulmonary artery dimension” value is 1.0 ± 0.02 mm; the “PaVTI, pulmonary artery Velocity time integral” value was determined as 30.6 ± 1.0; the “RWT, relative wall thickness” value is 0.28 ± 0.01.
